Source: paper PMC12538445
No constants are given. Whether binding was seen depends on the method and setting. In cells and extracts the contact can be indirect. Some entries that bind do so weakly or less than the wild type.

Amino acid sequences for entries named in this document (tags omitted).
UniProt P09874: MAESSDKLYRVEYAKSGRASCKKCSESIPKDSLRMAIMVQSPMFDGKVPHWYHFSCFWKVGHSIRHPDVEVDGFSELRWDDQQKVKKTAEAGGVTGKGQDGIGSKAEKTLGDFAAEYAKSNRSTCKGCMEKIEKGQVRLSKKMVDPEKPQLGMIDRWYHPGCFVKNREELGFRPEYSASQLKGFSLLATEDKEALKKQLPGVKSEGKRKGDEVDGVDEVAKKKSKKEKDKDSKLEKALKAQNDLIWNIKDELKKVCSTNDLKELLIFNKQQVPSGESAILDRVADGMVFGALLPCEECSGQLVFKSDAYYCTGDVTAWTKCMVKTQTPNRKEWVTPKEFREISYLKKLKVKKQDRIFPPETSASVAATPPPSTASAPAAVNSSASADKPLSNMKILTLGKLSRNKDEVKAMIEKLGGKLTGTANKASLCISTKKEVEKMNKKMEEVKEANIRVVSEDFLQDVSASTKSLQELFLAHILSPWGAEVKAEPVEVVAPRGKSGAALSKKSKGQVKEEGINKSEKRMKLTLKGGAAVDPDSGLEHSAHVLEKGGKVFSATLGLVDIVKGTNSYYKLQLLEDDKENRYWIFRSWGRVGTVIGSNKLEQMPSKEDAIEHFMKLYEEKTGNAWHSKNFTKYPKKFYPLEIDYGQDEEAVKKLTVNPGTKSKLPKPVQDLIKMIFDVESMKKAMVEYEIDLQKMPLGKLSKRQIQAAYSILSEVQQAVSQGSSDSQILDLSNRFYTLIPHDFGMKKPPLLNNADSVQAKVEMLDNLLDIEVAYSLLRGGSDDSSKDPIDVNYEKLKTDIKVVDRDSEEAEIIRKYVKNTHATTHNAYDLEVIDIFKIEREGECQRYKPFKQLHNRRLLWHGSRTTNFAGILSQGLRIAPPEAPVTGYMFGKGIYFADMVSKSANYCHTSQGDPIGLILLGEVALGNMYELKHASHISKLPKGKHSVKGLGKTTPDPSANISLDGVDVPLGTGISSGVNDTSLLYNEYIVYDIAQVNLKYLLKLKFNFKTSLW
UniProt P09429: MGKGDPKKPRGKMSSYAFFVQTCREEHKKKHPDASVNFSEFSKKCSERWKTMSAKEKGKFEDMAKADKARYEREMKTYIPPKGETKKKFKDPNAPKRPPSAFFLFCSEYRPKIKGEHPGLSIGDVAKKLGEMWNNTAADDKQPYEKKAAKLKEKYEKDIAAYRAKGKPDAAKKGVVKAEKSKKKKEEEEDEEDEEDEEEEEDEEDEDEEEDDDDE

Molecular target: PARP1 (not stated (cell line of this experiment not named; SH-SY5Y human or PC12 rat cells)) (UniProt P09874)
Test: co-IP; anti-PARP1 antibody (1:200) on protein G or A magnetic beads; precleared lysate (25 mM Tris-Cl pH 7.4, 150 mM NaCl, 1% NP-40) incubated overnight at 4 °C; cells treated with rotenone for 4 h; Western blot for HMGB1

binding: binds
Substance: High mobility group box 1 (HMGB1) (from UniProt P09429 1-215)
